Earlier results as cited in publication PMC12015351 (Scientific Reports, 2025).

What was measured:
[1] = test system: SARS-CoV-2-induced cytopathic effects in Vero E6; details: live virus; cited from earlier work
[2] = test system: SARS-CoV-2-induced cytopathic effects in human A549 cells (A549/ACE2); details: live virus; cited from earlier work

SMILES: CC(C)(C)c1ccc(C(=O)CCCN2CCC(OC(c3ccccc3)c3ccccc3)CC2)cc1 [ebastine]
- inhibition of SARS-CoV-2-induced cytopathic effects [1]: significant inhibition
- inhibition of SARS-CoV-2-induced cytopathic effects [2]: significant inhibition
